Results on 1 molecule are retold here after paper PMC8823290.

No constants are given. Whether binding was seen depends on the method and setting. In cells and extracts the contact can be indirect. Binding calls can cover weak binding; strength is not graded here. Sequences can lack the tags named with a protein.

This test addresses BbAtg3 fused to the N-terminal fragment of split YFP (BbATG3-YN) (Beauveria bassiana). Description: split reporter; split YFP (YN, YC) in the wild-type strain of B. bassiana; transformants propagated in SDB and starved; fluorescence in mycelia by laser confocal microscopy.

B1: BbAtg1 fused to the C-terminal fragment of split YFP (BbATG1-YC) (enzyme, UniProt J4W0G2 1-930)
chain: MTSRQEGASSHGSRRSSRHVGSFIIDREIGKGSFAQVYMGWHKESKAAVAIKSVELERLNKKLKENLYGEIQILKTLRHPHIVALHDCVESSTHINLIMEYCELGDLSLFIKKRDKLITHPATHDMARKYPSAPNSGLHEVVIRHFLKQLSSALEFLRAKNYVHRDVKPQNLLLLPSQAFREERALPIMEASQDSLIPISGLASLPMLKLADFGFARVLPSTSLADTLCGSPLYMAPEILRYERYDAKADLWSVGTVLYEMITGRPPFRARNHVELLRKIEAAEDVIKFPREVSVTPDLKALVRSLLKRSPVERLSFENFFAHHVVTGDILGLVEDDIPKPPKRELETIRQGEALPSSPRVQMARQLSSDPRDTRSSPKSPRSSPRSSTVNSSADAAPRRQSQNAERRLSISSHNSGQGLGIQRPAPPIQSHTAPNHPRAADRSGREPQPSSLRVARQPSDVSLTEEEKAAQDVMFERDYVVVERRHVEVNALADELAANEKLGQNNSSAKSSPLQRRYTQQGSATSTTGAIPTPASRTALVAQGRAGQDRRSSYEKALSASPGSASSAISKAIQDASLRLFGYKVNTMRQKGSSPPLYQPFPAYPTPTSAGLLSDGKGSQVSDEDAKAAQAIEEFATRSDCVYGFAEVKYKQLLPMAPSMDYGLGGVSPDKGTSEEDGLTVDATVALSEEALVLYVKSLTLLARAMDIASLWWSKKTRAESSVVSQTLVQRINAVVQWVRQRFNEVLEKSEVVRLKLTEAQKLLPEDHPSNPAHQGEDSIASSAVGAKQVYLTPGISAEKLMYDRALEMSRAAAIDEVTNENLPGCEISYLTAIRMLEAVLDSDDEATARNISSGKEIAKDATQEGSDLDTEEAAHVRKMITMITGRLNMVRKKQQMIAEANNQAKHVSAMRRLSGDVTPRSVPSYGST
As for B1, the binding entry is reported as “binds”.
